Source: ChEMBL document CHEMBL3988442, “University of Dundee, Small-Polar-MMV Screening Library” (2021).

The chains behind the UniProt entries cited, without tags or fusion partners. Residues count along the entry.
UniProt I6X8D2, whole entry: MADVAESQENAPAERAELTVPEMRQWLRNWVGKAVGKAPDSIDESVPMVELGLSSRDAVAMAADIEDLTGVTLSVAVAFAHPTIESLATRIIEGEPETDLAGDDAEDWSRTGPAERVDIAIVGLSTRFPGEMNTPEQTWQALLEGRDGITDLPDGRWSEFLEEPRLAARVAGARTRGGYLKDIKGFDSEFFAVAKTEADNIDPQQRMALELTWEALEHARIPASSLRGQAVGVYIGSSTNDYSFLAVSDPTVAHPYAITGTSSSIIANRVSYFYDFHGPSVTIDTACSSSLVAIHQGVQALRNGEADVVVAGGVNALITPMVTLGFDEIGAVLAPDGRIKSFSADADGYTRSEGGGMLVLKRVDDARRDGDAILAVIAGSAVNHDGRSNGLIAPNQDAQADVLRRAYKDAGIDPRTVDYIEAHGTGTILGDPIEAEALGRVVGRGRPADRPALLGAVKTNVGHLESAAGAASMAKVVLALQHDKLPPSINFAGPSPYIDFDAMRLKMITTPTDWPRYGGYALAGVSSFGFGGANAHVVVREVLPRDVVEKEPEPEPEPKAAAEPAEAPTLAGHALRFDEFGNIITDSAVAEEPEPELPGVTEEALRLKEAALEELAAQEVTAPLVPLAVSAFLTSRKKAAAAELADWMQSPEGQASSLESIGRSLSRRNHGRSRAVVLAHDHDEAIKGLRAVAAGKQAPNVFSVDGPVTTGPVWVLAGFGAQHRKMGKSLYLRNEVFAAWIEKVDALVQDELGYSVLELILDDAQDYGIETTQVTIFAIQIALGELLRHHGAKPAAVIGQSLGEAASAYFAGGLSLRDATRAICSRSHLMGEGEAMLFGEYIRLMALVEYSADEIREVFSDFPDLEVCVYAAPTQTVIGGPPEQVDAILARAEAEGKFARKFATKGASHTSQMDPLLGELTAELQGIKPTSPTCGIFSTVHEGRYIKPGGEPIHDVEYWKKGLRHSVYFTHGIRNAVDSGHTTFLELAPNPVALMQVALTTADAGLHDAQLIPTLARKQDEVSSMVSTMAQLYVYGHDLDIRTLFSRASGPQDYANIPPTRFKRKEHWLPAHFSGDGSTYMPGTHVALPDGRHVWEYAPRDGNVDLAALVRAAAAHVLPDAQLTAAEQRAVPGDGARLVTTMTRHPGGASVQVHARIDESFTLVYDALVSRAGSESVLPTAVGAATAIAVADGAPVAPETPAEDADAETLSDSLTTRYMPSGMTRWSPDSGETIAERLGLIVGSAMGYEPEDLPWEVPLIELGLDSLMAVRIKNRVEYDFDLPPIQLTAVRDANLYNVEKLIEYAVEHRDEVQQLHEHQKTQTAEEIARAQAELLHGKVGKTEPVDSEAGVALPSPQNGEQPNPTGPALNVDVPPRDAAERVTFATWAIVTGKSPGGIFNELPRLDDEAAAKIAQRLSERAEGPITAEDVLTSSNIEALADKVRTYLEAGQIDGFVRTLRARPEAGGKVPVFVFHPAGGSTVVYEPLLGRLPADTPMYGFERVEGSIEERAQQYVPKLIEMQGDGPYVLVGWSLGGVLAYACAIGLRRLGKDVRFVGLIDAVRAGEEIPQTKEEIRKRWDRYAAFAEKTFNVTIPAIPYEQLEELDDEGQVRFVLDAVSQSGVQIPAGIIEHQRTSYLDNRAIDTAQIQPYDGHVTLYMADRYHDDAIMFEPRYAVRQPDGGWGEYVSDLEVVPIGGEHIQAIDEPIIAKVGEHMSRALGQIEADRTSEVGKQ
UniProt Q8IDJ8, 1-583: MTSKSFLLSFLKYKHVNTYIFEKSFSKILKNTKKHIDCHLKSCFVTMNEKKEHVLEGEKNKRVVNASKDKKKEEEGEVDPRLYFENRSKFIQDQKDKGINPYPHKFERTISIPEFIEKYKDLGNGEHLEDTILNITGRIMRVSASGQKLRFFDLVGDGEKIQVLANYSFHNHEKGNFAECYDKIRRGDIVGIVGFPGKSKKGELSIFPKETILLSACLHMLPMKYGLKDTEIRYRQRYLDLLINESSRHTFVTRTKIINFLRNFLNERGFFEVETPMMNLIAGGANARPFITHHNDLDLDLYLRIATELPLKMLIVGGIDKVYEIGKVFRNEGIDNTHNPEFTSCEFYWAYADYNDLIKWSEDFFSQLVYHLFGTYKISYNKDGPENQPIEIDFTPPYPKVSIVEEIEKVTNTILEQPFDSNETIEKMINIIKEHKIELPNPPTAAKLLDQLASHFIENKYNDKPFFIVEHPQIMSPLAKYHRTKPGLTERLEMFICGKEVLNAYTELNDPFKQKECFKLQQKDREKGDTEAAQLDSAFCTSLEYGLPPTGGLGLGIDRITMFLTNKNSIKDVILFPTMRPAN
UniProt P9WNZ1, whole entry: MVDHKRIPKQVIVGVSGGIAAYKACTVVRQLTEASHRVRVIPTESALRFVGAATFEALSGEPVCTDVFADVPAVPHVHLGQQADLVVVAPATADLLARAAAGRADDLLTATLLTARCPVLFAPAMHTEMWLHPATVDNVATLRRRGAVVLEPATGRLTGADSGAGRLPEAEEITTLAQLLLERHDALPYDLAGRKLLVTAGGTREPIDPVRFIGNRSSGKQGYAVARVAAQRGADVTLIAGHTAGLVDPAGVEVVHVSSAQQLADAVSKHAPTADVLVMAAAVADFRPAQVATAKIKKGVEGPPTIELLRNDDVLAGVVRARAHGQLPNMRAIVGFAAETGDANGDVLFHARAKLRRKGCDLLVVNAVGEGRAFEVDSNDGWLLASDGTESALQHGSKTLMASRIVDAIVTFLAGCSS

Pks13 thioesterase: 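Enzyme assay of the thioesterase domain of polyketide synthase 13; the read-out is not stated. Target: Polyketide synthase Pks13, Mycobacterium tuberculosis (UniProt I6X8D2). Tested at 30 µM. Higher reads as stronger inhibition (inferred from which compounds were picked for retests). About 67,000 compounds were tested under these conditions; 0.46% (about 300) showed 50% or more at least once.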
PfKRS1: 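Enzyme assay of the cytosolic lysyl-tRNA synthetase in 384-well plates, read by luminescence. Target: Lysine-tRNA ligase, Plasmodium falciparum 3D7 (UniProt Q8IDJ8). Tested at 30 µM. Direction is inferred from only a few compounds that gave an IC50; most scored high, so higher reads as stronger inhibition. Of about 69,000 compounds tested this way, about 49 (0.071%) reached 50% or more in at least one test.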
CoaBC: 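Enzyme assay of CoaBC with a phosphate dye (Biomol Green) read at 650 nm. Target: Coenzyme A biosynthesis protein CoaBC, Mycobacterium tuberculosis (UniProt P9WNZ1). Concentration: 30 µM. Higher reads as stronger inhibition, judged from the few compounds that gave an IC50. Most strong results did not repeat in a second test. About 67,000 compounds were tested under these conditions; 0.06% (about 40) showed 50% or more at least once.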

Results are given as percent effect.
How 0% and 100% were set is not recorded. Most values in the screen are low, and negative values occur.
Compounds were drawn at random from those tested, without regard to their results.
A dash means the value is not listed here; it may have been measured.

SMILES	Pks13 thioesterase	PfKRS1	CoaBC
CCc1nnc(CN(C)C(=O)C2CC(=O)N(C3CC3)C2)o1 (stereo not drawn)	-9.897%	0.3828%	-7.143%
Cc1nn(C)c2nc(N(CCN(C)C)C3CCCC3)sc12	3.166%	1.452%	-
Cc1nc(CC(=O)N2CCC[C@H]2c2nc(C(C)C)no2)cs1	-6.207%	-3.436%	-0.8439%
CC(Cc1ccco1)NC(=O)Nc1cccnc1 (stereo not drawn)	-14.62%	-1.361%	2.046%
Cc1ccc(CN2C[C@@H]3CN(CC4CCOCC4)CCO[C@@H]3C2)s1	-14.27%	17.46%	-
NC(=O)Nc1cccc(C(=O)N(Cc2ccc(F)cc2)C2CC2)c1	-23.58%	0.3838%	-0.2484%
Cn1ccnc1CN1CCc2c(COCC3CC3)nn(C)c2C1	-4.086%	4.195%	4.727%
O=S(=O)(N1CCCC1)N(Cc1ccccc1)CC1CCCO1 (stereo not drawn)	-3.065%	-3.935%	2.169%
CCCNC(=O)c1cc2c(c3ccccc3n2C)n1C(=O)N(C)C	34.82%	1.947%	1.416%
Cc1cc2n(n1)CC(CNCc1ccccc1Cn1cccn1)CN2 (stereo not drawn)	-11.09%	0.01406%	12.27%
Cc1nc(CCN(C)C(=O)CCNC(=O)c2ccccc2F)no1	6.472%	-2.23%	1.238%
O=C(Cn1ccnc1)N1CCCC(OCc2cccnc2)C1 (stereo not drawn)	-11.12%	8.234%	1.523%
COc1ccccc1-c1cc(C(=O)N(C)C)c2cnn(C)c2n1	-2.063%	-0.7003%	3.684%
COC(=O)Nc1nc2c(s1)CN(C(=O)NCc1cccs1)CC2	-2.505%	3.276%	2.357%
O=C(NCC1(c2cccc(F)c2)CC1)N1CCC2(CCOC2)C1 (stereo not drawn)	-31.91%	4.68%	1.297%
COc1ccc(C)cc1CN(Cc1nc(C)c(C)o1)C1CCN(C)C1 (stereo not drawn)	-1.412%	2.795%	-17.74%
CN(C)Cc1cc(-c2nccn2CCc2cccnc2)ccc1O	-25.45%	5.234%	4.032%
CC(C)N1CC(n2ccnc2-c2nccn2C)CC1=O (stereo not drawn)	2.076%	8.573%	-10.17%
CC(=O)Nc1ccc(CNC(C)c2c(C)nn(C)c2C)cc1 (stereo not drawn)	-1.879%	0.9124%	3.484%
CC(=O)N1CCN(C(=O)c2ccc(Sc3ccccn3)cc2)CC1	-14.14%	0.3143%	1.179%
COc1ccc(NC(=O)C2OC(c3cccs3)=NN2C(C)=O)cc1OC (stereo not drawn)	-17.18%	1.794%	0.4854%
c1ccc2c(N3CCSCC3)cnnc2c1	-11.21%	7.678%	-3.666%
CC(=O)NCc1cc(-c2cccs2)n(C2CCCC2)n1	-9.461%	1.226%	-1.937%
CS(=O)(=O)N1CCN2C(=O)N(C3CCOCC3)C[C@H]2C1	15.62%	0.322%	-36.35%
CN1C(Cn2cccn2)C[C@@H]2CN(Cc3nccs3)CC[C@@H]21 (stereo partly drawn)	-5.402%	0.08172%	0.9223%
CCn1cc(Cl)c(C(=O)NCCOC)n1	0.7158%	-0.2654%	-0.9238%
COC(=O)c1cccc(C(=O)N2CCN(c3ccc(OC)cc3)CC2)n1	12.63%	7.571%	2.768%
CN(C)CCN1CCOCC2(CCCN(C(=O)c3ccoc3)C2)C1 (stereo not drawn)	-0.04513%	14.26%	-23.13%
CC(C)COCC1CN(C(=O)c2cscn2)Cc2ncn(C)c21 (stereo not drawn)	-32.53%	3.873%	4.208%
CCc1nc(CN(C)CC(N)=O)cs1	-6.291%	0.6709%	1.05%
Cc1ccc(N2CC[C@H]3O[C@@H](C(=O)NCc4ccco4)CC[C@H]32)nn1	-5.562%	4.203%	0.1287%
O=C(O)c1ccc(C2CCCN(Cc3ccc(-c4cc[nH]n4)o3)C2)cc1 (stereo not drawn)	0.5337%	0.1729%	0.4959%
COCCN1C(=O)C[C@H]2[C@H]1CCN2Cc1ccccc1	-3.615%	2.239%	-3%
O=C(C1CCOCC1)N1CCCC1c1cncc(CN2CCCC2)n1 (stereo not drawn)	-1.523%	-0.9461%	5.097%
CC(=O)Nc1cccc2c1ccn2CC(=O)NC(C)C	-1.78%	3.119%	1.453%
Cc1nn(C)cc1C(=O)N1CCCN(C2Cc3ccccc3C2)CC1	-14.8%	2.091%	3.171%
CNS(=O)(=O)c1ccc(CNC(=O)c2cc(-c3ccccn3)no2)cc1	-17.68%	1.823%	1.814%
CCc1ccc(NS(=O)(=O)CC2=NC(=O)n3cccc3C2=O)cc1	-42.84%	-2.041%	4.98%
CCN(C(=O)Cn1cc(NC(=O)C(C)(C)C)cn1)c1ccccc1	-26.59%	-1.096%	3.694%
COCCN1CCN(Cc2cccc(C(=O)N(C)C)c2)CC1	-3.651%	1.844%	1.305%
O=C(NCCc1ccn(-c2ccccc2)n1)N1CCC1	-18.21%	3.357%	5.641%
CC(C)Nc1cccc(CC2CCN(C)C2)n1 (stereo not drawn)	5.675%	1.595%	0.8653%
COCc1ccccc1C(=O)NCC(O)c1ccccc1F (stereo not drawn)	-18.64%	1.735%	5.455%
CS(=O)(=O)N1C[C@@H]2COC[C@H](C(=O)Nc3cnccn3)[C@@H]2C1	25.21%	-0.7128%	-3.969%
CCCN1CCC(CC(=O)NCCc2nc(C)cc(C)n2)CC1	-5.776%	8.061%	-3.851%
CC(C)n1cnnc1CN(C)Cc1cnc(-c2cccs2)nc1	-41.01%	6.466%	-2.386%

Some entries from above, unchanged:

SMILES	Pks13 thioesterase	PfKRS1	CoaBC
COCCN1CCN(Cc2cccc(C(=O)N(C)C)c2)CC1	-3.651%	1.844%	1.305%
O=C(NCC1(c2cccc(F)c2)CC1)N1CCC2(CCOC2)C1 (stereo not drawn)	-31.91%	4.68%	1.297%
CS(=O)(=O)N1CCN2C(=O)N(C3CCOCC3)C[C@H]2C1	15.62%	0.322%	-36.35%
COC(=O)Nc1nc2c(s1)CN(C(=O)NCc1cccs1)CC2	-2.505%	3.276%	2.357%
Cc1nn(C)cc1C(=O)N1CCCN(C2Cc3ccccc3C2)CC1	-14.8%	2.091%	3.171%
Cc1nc(CCN(C)C(=O)CCNC(=O)c2ccccc2F)no1	6.472%	-2.23%	1.238%